Results are given in words; binding and its absence hold for the method and conditions named. Some binding calls cover weakened binding; strength is not graded here. Sequences can lack the tags named with a protein.
Molecular target: Escherichia coli RelB (untagged, intact antitoxin) (Escherichia coli) (UniProt P0C079)
Experiment: crystal structure; RelB2E2 reconstituted from purified RelB and RelE R81A; crystals at 4°C, 1.6-2.0 M ammonium sulfate, 0.1 M Na acetate pH 4.6; space group P6(1)22; 2.8 Å; both purified

B1: Escherichia coli RelB (untagged, intact antitoxin) (natural protein, UniProt P0C079 1-79, looked up)
chain: MGSINLRIDDELKARSYAALEKMGVTPSEALRLMLEYIADNERLPFKQTLLSDEDAELVEIVKERLRNPKPVRVTLDEL
notes: RelB antitoxin of the relBE locus, Escherichia coli, 79 residues (residues 2-79 of 79 seen in the structure); Untagged; Details of purification are in the Supplemental Experimental Procedures; source: E. coli, plasmid pSC2524HE encoding His-tagged RelE R81A and untagged RelB; purified by denaturation, ion exchange, gel filtration
binding: binds

Reference: article PMC3507626, “The Crystal Structure of the Intact E. coli RelBE Toxin-Antitoxin Complex Provides the Structural Basis for Conditional Cooperativity” (Structure(London, England:1993), 2012)
